For at least one compound, name, drawing or mass did not settle the structure.
Test system: HIB1B cells

**Q.** With CN(CCOc1ccc(CC2SC(=O)NC2=O)cc1)c1ccccn1 (stereo not shown) [BRL49653, rosiglitiazone] as the molecule, how does the “growth of HIB1B cells” value read?
**A.** strongly repressed the growth
